Measured values taken from the supplement of paper PMC3334620.
Whole data set: some 33,000 sequences, median “E-score (-0.5 to 0.5)” near -0.0014, cut for the highest 2% near 0.25. The list shows a part of the results.

molecular target: T1, Cad1 (UniProt P24813); assay: PBM E-score (8-mer binding enrichment) (E-score (-0.5 to 0.5)); higher = stronger / more preferred TF binding; details: protein concentration: 100 nM; construct: GST-full length
T1 sequence: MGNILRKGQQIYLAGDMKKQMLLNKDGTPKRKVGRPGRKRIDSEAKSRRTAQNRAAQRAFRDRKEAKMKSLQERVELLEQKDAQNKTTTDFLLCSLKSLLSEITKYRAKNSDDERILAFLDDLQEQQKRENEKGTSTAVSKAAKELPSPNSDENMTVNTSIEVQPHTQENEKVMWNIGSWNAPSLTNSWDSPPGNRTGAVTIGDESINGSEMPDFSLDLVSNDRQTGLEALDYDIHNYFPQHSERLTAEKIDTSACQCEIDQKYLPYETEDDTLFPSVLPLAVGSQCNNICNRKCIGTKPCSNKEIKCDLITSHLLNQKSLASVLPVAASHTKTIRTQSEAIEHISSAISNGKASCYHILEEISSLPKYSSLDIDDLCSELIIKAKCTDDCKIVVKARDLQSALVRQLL
In short: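 Each ungapped eight-base word and its reverse complement, pooled, received an E-score from the Universal PBM Analysis Suite. Underlying scans, normalised with masliner, recorded fluorescent anti-GST bound to GST-tagged yeast transcription factors. These were applied at about 100-200 nM to universal all-10-mer Agilent arrays double-stranded by primer extension.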

| Sequence | PBM E-score |
| --- | --- |
| TCTGAGAA | 0.00624 |
| ATAAGTCA | 0.198 |
| GAAGTTAC | 0.0685 |
| CCAATACA | 0.0869 |
| GATTGTAC | -0.082 |
| AGTAGCAG | 0.0208 |
| ATCGCGAG | 0.264 |
| GGGAGCAC | -0.208 |
| CACCATAA | -0.00975 |
| TACCAGCA | 0.0626 |
| ATCATTCG | 0.141 |
| AGATGGCG | 0.101 |
| ACCTGTGA | 0.126 |
| AGGTGTGG | -0.142 |
| GTCTAGGA | -0.092 |
| GTATTTTA | 0.17 |
| AGTAAATG | 0.111 |
| AACGATCC | -0.105 |
| ACTTTGAG | -0.0793 |
| CAAGCCGC | -0.146 |
| ATTGCATG | 0.16 |
| GCTTTGTA | 0.223 |
| CCCTGCCC | -0.359 |
| AATGGTCG | 0.0575 |
| AAGGGGGT | -0.389 |

| Sequence | PBM E-score |
| --- | --- |
| CAGTCCTC | -0.274 |
| ATCCCGTC | -0.0534 |
| ACGGTACA | 0.0323 |
| CAAAGGAG | -0.0961 |
| CATGACGA | -0.0124 |
| TCATGAGA | 0.00213 |
| CACTGATG | -0.0345 |
| GCGCCGTA | 0.23 |
| GACGGCCA | 0.0269 |
| ATAAAGAG | -0.00445 |
| AAACGTGT | 0.0428 |
| GTATTGAC | -0.0498 |
| ACGACCGA | -0.00871 |
| GGGGAAAC | -0.0901 |
| CTCATGGA | -0.0362 |
| ATCCAATG | -0.111 |
| AAGAGACC | 0.073 |
| GGGATGTA | -0.0343 |
| CCAGGAGC | -0.269 |
| GACACTCC | 0.0191 |
| GACACATC | 0.0666 |
| AAGAGCCA | 0.0145 |
| CTGCGATA | 0.0524 |
| CCTTTTAA | -0.088 |
| AAGTCCGA | -0.107 |

| Sequence | PBM E-score |
| --- | --- |
| AGATACGG | 0.0164 |
| TAAAGGGA | -0.0259 |
| GATATAGC | 0.0534 |
| CAAGCCCA | -0.216 |
| CAATCGAA | 0.0916 |
| AAGCTGGA | -0.119 |
| CACCATCA | 0.0657 |
| AACTGGTG | -0.221 |
| GTTTCTCA | -0.0493 |
| TAGAGGCA | -0.166 |
| CCACTAGA | -0.323 |
| GCGATGGA | 0.0841 |
| AGTATATA | 0.285 |
| CGCCCCAC | -0.0786 |
| AGCTTGCC | -0.044 |
| AGGACTCC | -0.193 |
| AACGAGCC | -0.0666 |
| ATGCCCTA | -0.228 |
| CCTCTTCG | -0.204 |
| CTTGCCTC | -0.0541 |
| CCCACGAG | -0.0632 |
| ACGTGGAG | -0.0145 |
| AGACTGTC | -0.152 |
| CCGGCTAC | -0.103 |
| CCAAATAG | 0.0103 |

| Sequence | PBM E-score |
| --- | --- |
| ATACTGAC | 0.143 |
| TCGAACGA | 0.109 |
| GAGGTATC | -0.162 |
| CATAAATA | 0.171 |
| CGGTGTAC | -0.136 |
| CTGAAAAC | 0.0776 |
| CGCGGCTA | 0.128 |
| CGGAGTCC | 0.114 |
| AAGGGCAC | -0.198 |
| GCATTGCA | 0.107 |
| ACTCATAA | -0.0073 |
| CTCTAAAG | -0.144 |
| AGCTCATG | 0.0322 |
| ACGCAACC | 0.135 |
| CTGCCCCC | -0.341 |
| AAAGGTAG | -0.16 |
| CTGACGCC | -0.153 |
| CACTGAAC | 0.06 |
| ACGCGGTC | 0.128 |
| ATCCCTAG | 0.0209 |
| ACCACCTA | -0.202 |
| CGTTGGCA | 0.101 |
| AACATCGT | -0.0182 |
| GGGGTTGA | -0.2 |
| GATAAACC | 0.124 |

In another format: entries from further up
Sequence	PBM E-score
CTTGCCTC	-0.0541
CCCACGAG	-0.0632
ACGTGGAG	-0.0145
AGACTGTC	-0.152
CCGGCTAC	-0.103
CCAAATAG	0.0103
ATACTGAC	0.143
TCGAACGA	0.109
GAGGTATC	-0.162
CATAAATA	0.171
CGGTGTAC	-0.136
CTGAAAAC	0.0776
CGCGGCTA	0.128
CGGAGTCC	0.114
AAGGGCAC	-0.198
GCATTGCA	0.107
ACTCATAA	-0.0073
CTCTAAAG	-0.144
AGCTCATG	0.0322
ACGCAACC	0.135
CTGCCCCC	-0.341
AAAGGTAG	-0.16
CTGACGCC	-0.153
CACTGAAC	0.06
ACGCGGTC	0.128
ATCCCTAG	0.0209
ACCACCTA	-0.202
CGTTGGCA	0.101
AACATCGT	-0.0182
GGGGTTGA	-0.2
GATAAACC	0.124

Additional entries

| Sequence | PBM E-score |
| --- | --- |
| GACCTCTC | 0.0626 |
| CTCGGAAG | -0.0595 |
| AACTACCG | -0.0957 |
| CTAGAGAC | -0.243 |
| ACGGATTG | 0.143 |
| GATGCTGC | -0.0697 |
| AAAGGGTG | -0.0289 |
| CCTACCGA | -0.0591 |
| CGGGTCGA | -0.055 |
| ACATGTGC | 0.0691 |
| CGGCTTTC | -0.0736 |
| AGCTAGAG | -0.0985 |
| ACCCCTCT | -0.244 |
| ACTCCTTC | -0.167 |
| GAGGTCTA | -0.0987 |
| ACCGTGTG | -0.0277 |
| ACTGTCAG | 0.0975 |
| GTTAGGCA | -0.153 |
| CGCAATCC | 0.248 |
| AATTACTC | 0.239 |
| ATTCAATA | 0.16 |
| CGATCGAC | 0.272 |
| TTCATCAA | -0.038 |
| TATTCTAA | 0.232 |
| TAGCATGA | 0.11 |

Another view of some results above:
Sequence	PBM E-score
AAAGGGTG	-0.0289
CCTACCGA	-0.0591

Further results follow:

| Sequence | PBM E-score |
| --- | --- |
| CGAATATC | 0.188 |
| CACCTGAG | -0.0553 |
| AGGATAAG | 0.059 |
| ACAGGAAT | -0.0277 |
| GCGGCTAA | 0.04 |
| TGGGTGAA | 0.171 |
| GACCAGGA | -0.0841 |
| AACCAATG | 0.109 |
| GCGTATGA | -0.0342 |
| AATTATAG | 0.0146 |
| AAGCCAAC | -0.0179 |
| CCAGTCCC | -0.0713 |
| CAGCGTGC | -0.0014 |
| TGCCTCCA | -0.253 |
| ATTTTCAC | 0.125 |
| AGGTAAGA | 0.0122 |
| CTAGCGAG | -0.0728 |
| ATCAACAT | 0.24 |
| AAGAACGT | 0.106 |
| CCCCATGC | -0.218 |
| TTCGTCAA | -0.103 |
| CAATTCAG | -0.0912 |
| GTCTAAAC | 0.143 |
| ATCAGTAC | 0.0502 |
| CAGACCCG | -0.182 |

A second format for part of the listing above.
Sequence,PBM E-score
TGGGTGAA,0.171
CTAGCGAG,-0.0728

Remaining list, next part

| Sequence | PBM E-score |
| --- | --- |
| ACGGGCAA | -0.05 |
| CTACTATC | 0.229 |
| ACACATGC | -0.0854 |
| GTCTCGTA | -0.141 |
| GAGGATCC | 0.00114 |
| CATTCTGC | 0.00645 |
| TAAACAGA | 0.0907 |
| ATCACCTA | -0.125 |
| CTCAAGCA | -0.169 |
| AATCATGC | -0.0973 |
| AAGTGGAG | 0.0645 |
| CAAAACGA | 0.0549 |
| ATGAGATC | 0.0315 |
| CAAATTAA | 0.207 |
| CACGACGA | -0.197 |
| ATCCGTTC | 0.229 |
| AACGGTGA | -0.167 |
| AATACAAT | 0.124 |
| AGCACTTC | 0.0469 |
| GAGCAATA | -0.0516 |
| AAGTGGGG | -0.28 |
| CATTAGTA | 0.304 |
